# From paper PMC2788426
# The chains behind the UniProt entries cited, without tags or fusion partners. Where a name states a change or a piece, a line headed by the entry shows the natural chain unless it says otherwise.
# UniProt P42224: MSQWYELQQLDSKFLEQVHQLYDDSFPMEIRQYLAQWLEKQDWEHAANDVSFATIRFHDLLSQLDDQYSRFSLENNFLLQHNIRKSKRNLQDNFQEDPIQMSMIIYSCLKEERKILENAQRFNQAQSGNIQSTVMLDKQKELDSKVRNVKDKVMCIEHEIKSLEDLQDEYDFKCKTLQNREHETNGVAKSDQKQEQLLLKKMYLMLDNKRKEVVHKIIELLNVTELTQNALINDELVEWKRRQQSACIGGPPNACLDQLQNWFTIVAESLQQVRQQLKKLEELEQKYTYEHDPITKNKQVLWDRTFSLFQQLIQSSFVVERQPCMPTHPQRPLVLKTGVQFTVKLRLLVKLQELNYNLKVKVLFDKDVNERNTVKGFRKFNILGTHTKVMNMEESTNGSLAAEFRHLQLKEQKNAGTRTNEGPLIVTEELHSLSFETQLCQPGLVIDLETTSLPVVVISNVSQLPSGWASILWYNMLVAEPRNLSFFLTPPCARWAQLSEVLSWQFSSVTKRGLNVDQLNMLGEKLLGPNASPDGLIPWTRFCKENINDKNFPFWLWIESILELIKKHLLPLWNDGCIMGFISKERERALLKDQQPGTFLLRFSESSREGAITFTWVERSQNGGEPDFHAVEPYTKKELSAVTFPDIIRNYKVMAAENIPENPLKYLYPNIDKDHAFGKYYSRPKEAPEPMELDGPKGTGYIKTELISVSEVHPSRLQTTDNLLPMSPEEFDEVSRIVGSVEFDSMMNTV
# Tests used:
# Stat1 + nucleolin = assay: competition with a labelled probe; conditions: 5-fold excess unlabeled H2K did not affect GAS complex; EMSA with 2-4 ug whole cell extract (Results text says nuclear extract), 30 min at 25 C; salt and pH not given (ref. 69); protein in an extract; label: unlabeled competitor
# Stat1 homodimer = Stat1 homodimer (UniProt P42224); assay: EMSA; conditions: IFN-gamma 2 h THP-1 extract, positive control; EMSA with 2-4 ug whole cell extract (Results text says nuclear extract), 30 min at 25 C; salt and pH not given (ref. 69); protein in an extract; label: 32P
Sequence,binding result (Stat1 + nucleolin),binding result (Stat1 homodimer)
GATCCAGGGCTGGGGATTCCCCATCTCCACAGG / GATCCCTGTGGAGATGGGGAATCCCCAGCCCTG [H2K],no binding,–
CATGTTATGCATATTCCTGTAAGTG / CATGCACTTACAGGAATATGCATAA [GAS],–,binds

# The exact form of at least one protein or probe is not confirmed. At least one result comes from cells or an extract, where the contact may be indirect. For some assays here: A negative result means that nothing was seen under these conditions. For some assays here: At least one verdict rests on a figure or table, not on a statement of the authors.
